Measured data: PubChem BioAssay AID1159584 (Peter MacCallum Cancer Centre, 2016)
Shown is a random part of about 18,000 deposited reagents. Reagents against one gene are numbered here. Not given: the amount of reagent, the time to read-out.

Assay: 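Knock-downs that harm CDH1-null cells more than parental MCF10A cells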 (primary screen)
Cell system: human MCF10A breast epithelial cells, parental and CDH1-null
Reagents: siRNA against human genes
Detection: 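Cell viability by CellTiter-Glo ATP luminescence, each line scaled to the mean of mock wells across plates, then CDH1-null over parental ratio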
Reading the numbers: CDH1-null / parental viability ratio: higher = CDH1-null cells survive relatively better than parental; CDH1-null viability vs mock: higher = more viable CDH1-null cells; parental viability vs mock: higher = more viable parental cells

target,reagent,CDH1-null / parental viability ratio,CDH1-null viability vs mock (fraction of mock),parental viability vs mock (fraction of mock)
CYP26A1,1,1.13,0.77,0.68
CALY,1,1.14,1.05,0.92
TEAD3,1,1.38,0.94,0.68
ZNF518B,1,0.86,0.72,0.84
OPHN1,1,0.99,0.68,0.69
FBXO5,1,1.25,0.3,0.24
CCDC159,1,1.18,0.9,0.76
PPIP5K2,1,0.97,0.66,0.68
SERHL2,1,1.03,0.8,0.78
KBTBD12,1,0.92,0.87,0.95
TMEFF2,1,0.78,0.6,0.77
RWDD2B,1,0.98,0.8,0.82
LYPD5,1,0.95,0.78,0.82
TPGS1,1,1.24,0.57,0.46
CETP,1,1.13,1.02,0.9
MBD5,1,1.06,0.94,0.89
BTG2,1,0.9,0.86,0.96
CAPN5,1,1.18,0.78,0.66
UCHL1,1,1.2,1.04,0.87
ZNF426,1,1.5,0.54,0.36
GTF2H4,1,0.79,0.49,0.62
STK36,1,1.32,1.08,0.82
SLC19A2,1,0.72,0.7,0.97
NPAS4,1,1.26,0.59,0.47
USP26,1,1.09,0.76,0.7
DLEU7,1,1.21,1.04,0.86
GNG8,1,0.9,0.52,0.58
USP9X,1,1.27,0.94,0.74
RETREG3,1,1.08,0.84,0.78
MIP,1,1.02,0.6,0.59
TMCO6,1,1.19,0.68,0.57
DHRS3,1,0.73,0.51,0.7
SRPX2,1,0.81,0.83,1.03
MIF4GD,1,0.93,0.51,0.55
MMD,1,1.02,1.06,1.04
IFT140,1,1.09,0.95,0.87
ITGA3,1,0.89,0.64,0.72
TCF15,1,1.11,0.97,0.87
MYLIP,1,1.2,0.65,0.54
TOR1AIP2,1,0.77,0.62,0.8
TOR1AIP2,2,0.84,0.82,0.98
PODN,1,1,0.66,0.66
RUSC2,1,1.38,0.4,0.29
PCK1,1,1.13,0.85,0.75
PREX1,1,0.84,0.59,0.7
SLC47A1,1,1.01,0.7,0.69
CCDC86,1,0.73,0.47,0.64
VN1R4,1,1.51,1.06,0.7
TTC19,1,0.94,0.76,0.81
NPY,1,1.44,0.98,0.68
MAVS,1,0.71,0.97,1.36
IFT54,1,1.04,0.74,0.71
HGFAC,1,1.38,0.58,0.42
RRAD,1,0.89,0.4,0.45
CWC15,1,0.59,0.41,0.7
C5AR1,1,0.88,0.58,0.66
ZNF555,1,1.11,0.94,0.85
MYH11,1,1.2,0.79,0.66
DEFA5,1,1.05,0.8,0.76
CCDC71,1,0.93,0.83,0.89
AXIN1,1,1.1,0.92,0.84
ALKBH2,1,0.9,0.74,0.82
NIF3L1,1,0.78,0.39,0.5
OTUD6A,1,0.92,0.55,0.6
VPS18,1,0.87,0.7,0.8
ZSWIM3,1,1.01,0.76,0.75
MPST,1,1,0.64,0.64
PPP1R14A,1,1,0.97,0.97
RPS23,1,1.15,0.47,0.41
LILRB1,1,1.14,1.06,0.93
DYNLT1,1,1.17,0.82,0.7
ZNF572,1,1.16,0.96,0.83
GARRE1,1,0.93,0.93,1
ZNF780B,1,0.95,0.94,0.99
KCNJ13,1,1.09,0.83,0.76
CMBL,1,1.17,0.98,0.84
ZNF200,1,1.02,1.01,0.99
UBL3,1,0.95,1.02,1.07
MGAT4C,1,0.9,0.79,0.88
NCOA2,1,1,0.9,0.9
UBE2J2,1,1.12,0.96,0.86
RETSAT,1,1.06,0.52,0.49
OR4C46,1,0.92,0.33,0.36
PLCL1,1,0.91,0.82,0.9
CXXC5,1,1.35,0.88,0.65
MMADHC,1,1.15,0.9,0.78
RFESD,1,1.07,0.78,0.73

An excerpt of the results above, as a working copy:
target,reagent,CDH1-null / parental viability ratio,CDH1-null viability vs mock (fraction of mock),parental viability vs mock (fraction of mock)
ZNF426,1,1.5,0.54,0.36
GTF2H4,1,0.79,0.49,0.62
STK36,1,1.32,1.08,0.82
SLC19A2,1,0.72,0.7,0.97
NPAS4,1,1.26,0.59,0.47
USP26,1,1.09,0.76,0.7
DLEU7,1,1.21,1.04,0.86
GNG8,1,0.9,0.52,0.58
USP9X,1,1.27,0.94,0.74
RETREG3,1,1.08,0.84,0.78
MIP,1,1.02,0.6,0.59
TMCO6,1,1.19,0.68,0.57
DHRS3,1,0.73,0.51,0.7
